These are yes or no findings as the source states them, for the method shown. Some binding calls cover weakened binding; strength is not graded here.
Target: T1, Rad23 (yeast (endogenous in BY4742)) (UniProt P32628)
T1 sequence: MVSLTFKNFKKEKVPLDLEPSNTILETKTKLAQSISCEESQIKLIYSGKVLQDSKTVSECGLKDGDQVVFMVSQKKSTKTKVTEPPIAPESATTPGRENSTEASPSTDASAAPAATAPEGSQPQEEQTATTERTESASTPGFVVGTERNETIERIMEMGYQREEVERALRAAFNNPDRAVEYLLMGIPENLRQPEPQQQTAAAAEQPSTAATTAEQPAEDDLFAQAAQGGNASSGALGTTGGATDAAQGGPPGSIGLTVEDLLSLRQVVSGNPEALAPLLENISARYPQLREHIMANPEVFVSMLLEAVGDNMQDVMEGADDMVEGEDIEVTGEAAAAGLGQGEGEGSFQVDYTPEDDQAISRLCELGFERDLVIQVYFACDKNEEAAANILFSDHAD
Assay: double ChIP (sequential chromatin immunoprecipitation); formaldehyde cross-linked, sonicated chromatin extracts of unirradiated cells; first IP with Rad23 antibodies, second IP with Rad4 antibodies; read out by qPCR of the DDR2 and DUN1 promoters

binding: binds
B1: Rad4 (protein, UniProt P14736 1-754)
chain: MNEDLPKEYFELIRKALNEKEAEKAPLSRRRRVRRKNQPLPDAKKKFKTGLNELPRESVVTVNLDSSDDGVVTVPTDDSVEEIQSSEEDYDSEEFEDVTDGNEVAGVEDISVEIKPSSKRNSDARRTSRNVCSNEERKRRKYFHMLYLVCLMVHGFIRNEWINSKRLSRKLSNLVPEKVFELLHPQKDEELPLRSTRKLLDGLKKCMELWQKHWKITKKYDNVGLYMRTWKEIEMSANNKRKFKTLKRSDFLRAVSKGHGDPDISVQGFVAMLRACNVNARLIMSCQPPDFTNMKIDTSLNGNNAYKDMVKYPIFWCEVWDKFSKKWITVDPVNLKTIEQVRLHSKLAPKGVACCERNMLRYVIAYDRKYGCRDVTRRYAQWMNSKVRKRRITKDDFGEKWFRKVITALHHRKRTKIDDYEDQYFFQRDESEGIPDSVQDLKNHPYYVLEQDIKQTQIVKPGCKECGYLKVHGKVGKVLKVYAKRDIADLKSARQWYMNGRILKTGSRCKKVIKRTVGRPKGEAEEEDERLYSFEDTELYIPPLASASGEITKNTFGNIEVFAPTMIPGNCCLVENPVAIKAARFLGVEFAPAVTSFKFERGSTVKPVLSGIVVAKWLREAIETAIDGIEFIQEDDNRKEHLLGALESWNTLLLKLRIRSKLNSTYGKIAEEEPNVTKEQNIADNHDNTETFMGGGFLPGIANHEARPYSEPSEPEDSLDYVSVDKAEESATDDDVGEDYSDFMKELEMSEESD
